Results: publication PMC2821298
These are yes or no findings as the source states them, for the method shown. Some results given as binding are weak or reduced against the parent protein; the word gives no strength.

The chains behind the UniProt entries cited, without tags or fusion partners. Where a name states a change or a piece, a line headed by the entry shows the natural chain unless it says otherwise. Residues count along the entry.
UniProt P48356, residues 22-1162: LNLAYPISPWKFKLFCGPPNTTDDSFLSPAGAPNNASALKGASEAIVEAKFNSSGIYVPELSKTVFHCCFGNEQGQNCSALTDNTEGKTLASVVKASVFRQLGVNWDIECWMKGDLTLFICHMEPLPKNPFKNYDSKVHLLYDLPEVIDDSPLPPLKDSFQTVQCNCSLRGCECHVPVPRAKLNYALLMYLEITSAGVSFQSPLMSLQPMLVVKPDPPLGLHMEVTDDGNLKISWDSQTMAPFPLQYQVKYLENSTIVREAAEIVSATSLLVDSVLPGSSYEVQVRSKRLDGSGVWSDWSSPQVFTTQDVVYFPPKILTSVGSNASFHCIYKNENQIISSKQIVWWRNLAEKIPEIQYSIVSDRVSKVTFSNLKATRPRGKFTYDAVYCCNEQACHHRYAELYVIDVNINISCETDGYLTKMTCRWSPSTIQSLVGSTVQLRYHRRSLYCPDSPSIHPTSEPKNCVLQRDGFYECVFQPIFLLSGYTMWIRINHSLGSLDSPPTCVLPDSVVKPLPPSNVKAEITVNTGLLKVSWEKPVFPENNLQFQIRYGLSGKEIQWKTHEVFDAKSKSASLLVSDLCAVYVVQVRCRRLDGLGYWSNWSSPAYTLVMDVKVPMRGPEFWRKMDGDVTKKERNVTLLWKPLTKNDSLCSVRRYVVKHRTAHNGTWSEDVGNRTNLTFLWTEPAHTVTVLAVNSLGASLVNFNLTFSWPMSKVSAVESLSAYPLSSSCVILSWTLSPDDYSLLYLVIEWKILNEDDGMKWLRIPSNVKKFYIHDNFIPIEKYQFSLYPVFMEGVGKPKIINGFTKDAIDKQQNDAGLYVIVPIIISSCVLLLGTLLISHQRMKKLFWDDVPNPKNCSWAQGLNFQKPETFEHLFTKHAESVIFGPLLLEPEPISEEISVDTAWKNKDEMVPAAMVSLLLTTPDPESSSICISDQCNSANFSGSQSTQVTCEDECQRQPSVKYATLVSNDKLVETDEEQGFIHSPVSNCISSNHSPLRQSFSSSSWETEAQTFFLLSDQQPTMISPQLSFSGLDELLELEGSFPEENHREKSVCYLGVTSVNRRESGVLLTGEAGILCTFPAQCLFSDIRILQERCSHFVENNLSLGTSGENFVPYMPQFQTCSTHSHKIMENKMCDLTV
UniProt P41160, residues 22-167: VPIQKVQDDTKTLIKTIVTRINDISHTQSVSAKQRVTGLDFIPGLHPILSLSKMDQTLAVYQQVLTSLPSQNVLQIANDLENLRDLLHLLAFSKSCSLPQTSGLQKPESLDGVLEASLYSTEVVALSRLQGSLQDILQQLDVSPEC

Biological target: leptin receptor, long isoform (LEPRb), wild type (mouse) (UniProt P48356)
Assay: binding of leptin-SEAP to cells (bound phosphatase activity, chemoluminescence); leptin-SEAP on RINm5F cells stably expressing WT LEPRb in 6-well plates; cells serum-starved 4 h, treated with leptin (20 ng/ml) for 2 h or not treated, acid-washed (0.5 M NaCl, 0.2 M acetic acid, pH 2.3) to remove receptor-bound leptin; nonspecific binding subtracted

In the case of “mouse leptin-secreted alkaline phosphatase (SEAP) chimeric protein (from UniProt P41160 22-167) (ligand)”, the binding is reported as “binds”.
